Assay results taken from PMC7819943, “Rice protein-binding microarrays: a tool to detect cis-acting elements near promoter regions in rice”.
The list shows a part of the results.

The sequences below were run against T1, OsSMF1 (Oryza sativa, UniProt Q6ZLB0 1-436) (assay: protein-binding microarray (RPBM); PBS, 2% BSA, 51.3 ng/ul salmon testes DNA, 50 uM zinc acetate, 200 nM TF, 25 C, 1 h; high values mean tight binding). Settings: protein: recombinant; tags: N-terminal polyhistidine and DsRed monomer fusion (pET32a); chain copies: 2; label: CyDye5-dUTP incorporated in the synthesized complementary strand; 3' TTTTT single-stranded linker to array surface; dsDNA, one strand shown.
T1 sequence: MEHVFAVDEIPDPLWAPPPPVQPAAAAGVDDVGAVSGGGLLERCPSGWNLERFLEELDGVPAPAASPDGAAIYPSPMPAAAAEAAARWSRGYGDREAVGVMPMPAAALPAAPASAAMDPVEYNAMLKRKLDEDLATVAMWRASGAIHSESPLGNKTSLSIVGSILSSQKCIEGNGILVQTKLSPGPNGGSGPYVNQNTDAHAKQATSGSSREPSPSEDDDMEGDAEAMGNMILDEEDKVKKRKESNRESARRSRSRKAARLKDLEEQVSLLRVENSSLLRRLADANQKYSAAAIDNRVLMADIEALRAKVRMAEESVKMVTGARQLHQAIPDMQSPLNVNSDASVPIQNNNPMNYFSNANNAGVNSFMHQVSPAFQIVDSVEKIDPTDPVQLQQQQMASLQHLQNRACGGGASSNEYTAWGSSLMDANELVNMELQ
Procedure, shortened: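 Binding signal here means per-feature fluorescence intensity in arbitrary units. The values were read on an Axon 4000B scanner after a custom Agilent array, double-stranded by primer extension with Cy5-dUTP, was incubated with 200 nM protein at 25 °C for 1 h in PBS with 2% BSA, salmon testes DNA and 50 µM zinc acetate, then washed. The proteins were transcription factors with an N-terminal polyhistidine tag and DsRed, expressed in E. coli BL21-CodonPlus and purified on Ni–NTA.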

Sequence	binding signal
CGCACCGACGCCGCAGCCGTTGCTCCCCGTGACCAACCCCCGGAGTCACCTAGTGCAG	3450 fluorescence intensity (a.u.)
TGTGCTATACCGCGCGCGGCGCGATCCACGTAAGAAAGTCCGGAGTCACCTAGTGCAG	8360 fluorescence intensity (a.u.)
GCGCGCGCGCGCCCGCGGCCATCGGCTGTCGCACGCGGCGCGGAGTCACCTAGTGCAG	37900 fluorescence intensity (a.u.)
GCGGCGAGGGGCGACCAGGAGCTCCCGCCCTACGTCATCACGGAGTCACCTAGTGCAG	6340 fluorescence intensity (a.u.)
ATTTCCGACCGGTCATATTCATTTGTCAACCTGATTGTACCGGAGTCACCTAGTGCAG	3550 fluorescence intensity (a.u.)
TTTGTTTTCTTTTCCTTGACTTGCACGCTCAAAGCACAATCGGAGTCACCTAGTGCAG	3460 fluorescence intensity (a.u.)
TAGATATTTGATGTTTGTTGTTCCTTAAACATAAGCTAAGCGGAGTCACCTAGTGCAG	3730 fluorescence intensity (a.u.)
ATTTAATGTTGTCCTAGCTAGATCCATCCAAGGCTCCAAACGGAGTCACCTAGTGCAG	3590 fluorescence intensity (a.u.)
GTAATTAATTTTAACATCATATCATCTCATAGAGAGCACGCGGAGTCACCTAGTGCAG	4570 fluorescence intensity (a.u.)
CTTTATCTGCATGAATTAATGCATGATTACATCATTGCACCGGAGTCACCTAGTGCAG	35000 fluorescence intensity (a.u.)
AATCTGGGAAGCCGTGTAGCGCGCGTCATCACGTCGTCCCCGGAGTCACCTAGTGCAG	7760 fluorescence intensity (a.u.)
TATTTTCCTCCTGGACCCTTTCGCAAGTAACACGCGTCGGCGGAGTCACCTAGTGCAG	4670 fluorescence intensity (a.u.)
TGCATGTGGAGGGAGAAGAGGGCGGCGGCACACGTGGAGGCGGAGTCACCTAGTGCAG	5880 fluorescence intensity (a.u.)
GACGACCCCAGCGTCAGCCGCGTCATGCGGGAGGCCGGCTCGGAGTCACCTAGTGCAG	6400 fluorescence intensity (a.u.)
CGCGCGCGTACTGGCTACACACACATACGCGCGGCGACAGCGGAGTCACCTAGTGCAG	3820 fluorescence intensity (a.u.)
ATCACTCTACTTTGTCTGTGTCATATTATAAGCTGCTTGACGGAGTCACCTAGTGCAG	5640 fluorescence intensity (a.u.)
CGCGCGGAATAGAGAATACTCCTACCGCAACTTGGCCCGGCGGAGTCACCTAGTGCAG	3490 fluorescence intensity (a.u.)
TGTGTTGGCGTGGGCCCCACCTGCCACGTCAGGTCCAGCTCGGAGTCACCTAGTGCAG	26700 fluorescence intensity (a.u.)
TTGAACACGACCTCTTCCTTCTCCAAACGAACGACCATGCCGGAGTCACCTAGTGCAG	18300 fluorescence intensity (a.u.)
TCCCTTGGCAGTATAGGTGGGTGGTTTTGCTTACGTGGCACGGAGTCACCTAGTGCAG	40000 fluorescence intensity (a.u.)
GCTAGGTCTGGTCGCCCCGTGTGTGTATCCGTTGCCCCTGCGGAGTCACCTAGTGCAG	3860 fluorescence intensity (a.u.)

Three records drawn at random from those above:
Sequence	binding signal
GCTAGGTCTGGTCGCCCCGTGTGTGTATCCGTTGCCCCTGCGGAGTCACCTAGTGCAG	3860 fluorescence intensity (a.u.)
CGCGCGGAATAGAGAATACTCCTACCGCAACTTGGCCCGGCGGAGTCACCTAGTGCAG	3490 fluorescence intensity (a.u.)
TTTGTTTTCTTTTCCTTGACTTGCACGCTCAAAGCACAATCGGAGTCACCTAGTGCAG	3460 fluorescence intensity (a.u.)

(list continues)

Sequence	binding signal
TAGCACTTATGACTAATCACGAACTAATTAGGCTTAAAAGCGGAGTCACCTAGTGCAG	3980 fluorescence intensity (a.u.)
TCACGGCCCCGCCGACCTCACGTCACCTTTTGTTGCGAGTCGGAGTCACCTAGTGCAG	4160 fluorescence intensity (a.u.)
CGCCATGTGTCAACTGGCATGGCCGTGCGCTGGCACACACCGGAGTCACCTAGTGCAG	5160 fluorescence intensity (a.u.)
CTTCAAATGTGTGTCAGTATATCCAATATGACACGCCAAACGGAGTCACCTAGTGCAG	3870 fluorescence intensity (a.u.)
TTGTATACTTTCAAAGGAACTAGTACCATTCGTATTGTTGCGGAGTCACCTAGTGCAG	3640 fluorescence intensity (a.u.)
TCACTTGACTCGATCGATCGCTCCGATCGACTACACCCCGCGGAGTCACCTAGTGCAG	3540 fluorescence intensity (a.u.)
CAGATCCATTCCCAGATCCTGACAAAGCACTAGAACTACACGGAGTCACCTAGTGCAG	3620 fluorescence intensity (a.u.)
AGTACTCCATTGGAACATGACGCATAATACTACTCTACTTCGGAGTCACCTAGTGCAG	3840 fluorescence intensity (a.u.)
GCGCGAGCCATTATCTTACGTCACGGCCCAAACGCCGAGGCGGAGTCACCTAGTGCAG	7220 fluorescence intensity (a.u.)
CCCTCGTCTCCCGCGCCTGCCACGCCGCCGAGTCGCGCCACGGAGTCACCTAGTGCAG	5000 fluorescence intensity (a.u.)
ACACACCACATAAGTGCCACGAAACTGCCTCCGAAACCACCGGAGTCACCTAGTGCAG	3470 fluorescence intensity (a.u.)
GGTCCCACCTGTCATATGCATATTACGTTTTAGAGTCCGTCGGAGTCACCTAGTGCAG	3270 fluorescence intensity (a.u.)
ATCATGCTCTATGTGTAGTTGTATACGTGCGTATATATCTCGGAGTCACCTAGTGCAG	3460 fluorescence intensity (a.u.)
TTGTGATGATTCATTTATAAAATAAGGAAGTTTTCTCAATCGGAGTCACCTAGTGCAG	3360 fluorescence intensity (a.u.)
GCCGCCCTCTCCCTCCCGCTGTCCACCTCCACCTCACAGGCGGAGTCACCTAGTGCAG	4300 fluorescence intensity (a.u.)
TGTTCCACGTGGTACCGGTGTGTGTGGCACGGTGGCGCCGCGGAGTCACCTAGTGCAG	8490 fluorescence intensity (a.u.)
GTTAACAGTAAGTTATTCTTTGAACTCCATATATTTGTTCCGGAGTCACCTAGTGCAG	3440 fluorescence intensity (a.u.)
GAGGACACGAGCGCTCCCGGACACGCGTCGCCTCCCCATTCGGAGTCACCTAGTGCAG	3880 fluorescence intensity (a.u.)
TCGGCGCTGTCGGAGGTGGATCTCGCATAGCTCTCGACGGCGGAGTCACCTAGTGCAG	3200 fluorescence intensity (a.u.)
AGCCGTATCCACCCAGTTGTACATGTGTCCTAGTTGAGAGCGGAGTCACCTAGTGCAG	3380 fluorescence intensity (a.u.)
ATTTGCGCTGATATATTATCTAACGTGACACGATTAATCCCGGAGTCACCTAGTGCAG	6030 fluorescence intensity (a.u.)
